In experiment [1] the target is T1, Kif3B (human) (UniProt O15066).
T1 sequence: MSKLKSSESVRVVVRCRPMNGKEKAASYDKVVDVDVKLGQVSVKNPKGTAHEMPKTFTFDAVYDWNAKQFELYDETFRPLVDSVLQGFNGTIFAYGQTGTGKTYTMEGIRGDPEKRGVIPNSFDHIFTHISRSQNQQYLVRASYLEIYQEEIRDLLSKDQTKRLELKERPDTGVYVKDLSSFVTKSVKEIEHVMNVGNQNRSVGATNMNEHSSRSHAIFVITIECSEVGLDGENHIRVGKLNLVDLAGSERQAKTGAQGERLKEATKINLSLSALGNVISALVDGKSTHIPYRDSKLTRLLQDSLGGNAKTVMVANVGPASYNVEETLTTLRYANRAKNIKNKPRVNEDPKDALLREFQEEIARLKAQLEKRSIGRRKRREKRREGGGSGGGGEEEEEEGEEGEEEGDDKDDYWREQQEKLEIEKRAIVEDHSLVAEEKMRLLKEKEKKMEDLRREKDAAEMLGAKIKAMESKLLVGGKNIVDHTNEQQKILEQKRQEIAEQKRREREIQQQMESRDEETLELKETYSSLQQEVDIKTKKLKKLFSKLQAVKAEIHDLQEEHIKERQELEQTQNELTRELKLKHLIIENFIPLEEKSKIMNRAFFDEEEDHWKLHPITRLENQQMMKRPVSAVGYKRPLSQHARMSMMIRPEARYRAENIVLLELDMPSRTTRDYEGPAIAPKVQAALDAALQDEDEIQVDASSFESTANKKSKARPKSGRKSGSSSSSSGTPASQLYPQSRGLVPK
Put plainly: mass photometry.

Chains of the proteins cited; added tags and fusions are not shown.
UniProt Q9Y496, whole entry: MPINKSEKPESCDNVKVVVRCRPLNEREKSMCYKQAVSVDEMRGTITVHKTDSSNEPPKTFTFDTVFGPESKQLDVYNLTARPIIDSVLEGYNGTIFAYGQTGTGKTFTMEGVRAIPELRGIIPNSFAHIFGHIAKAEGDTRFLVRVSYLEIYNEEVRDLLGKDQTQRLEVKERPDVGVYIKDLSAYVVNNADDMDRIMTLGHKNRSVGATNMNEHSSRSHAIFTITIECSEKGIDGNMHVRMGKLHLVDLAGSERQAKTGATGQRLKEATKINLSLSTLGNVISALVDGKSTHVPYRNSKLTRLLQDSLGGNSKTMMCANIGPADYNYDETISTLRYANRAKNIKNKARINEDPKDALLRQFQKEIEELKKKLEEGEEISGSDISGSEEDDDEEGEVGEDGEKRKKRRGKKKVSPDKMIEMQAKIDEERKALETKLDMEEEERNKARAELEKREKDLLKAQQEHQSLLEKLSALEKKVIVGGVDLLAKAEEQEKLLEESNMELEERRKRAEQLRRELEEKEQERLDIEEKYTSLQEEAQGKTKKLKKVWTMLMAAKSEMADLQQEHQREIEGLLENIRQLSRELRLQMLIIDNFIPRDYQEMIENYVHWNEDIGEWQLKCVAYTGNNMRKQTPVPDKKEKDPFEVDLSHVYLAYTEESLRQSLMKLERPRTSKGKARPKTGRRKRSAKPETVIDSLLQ

Experiment [2] concerns the target T1, Kif3B (human). Put plainly: SEC.

Experimental findings from publication doi:10.1101/2024.10.14.618219 are described below.

No constants are given. Whether binding was seen depends on the method and setting. Some entries that bind do so weakly or less than the wild type.

Regarding Kif3A (from UniProt Q9Y496 1-699), the binding entry with Kif3B (human) [1] and in the experiment with Kif3B (human) [2] was “binds” each time.
